This passage reports binding results from publication PMC12695649.

By UniProt entry, the sequences of proteins in these tests, tags left out.
UniProt Q99873: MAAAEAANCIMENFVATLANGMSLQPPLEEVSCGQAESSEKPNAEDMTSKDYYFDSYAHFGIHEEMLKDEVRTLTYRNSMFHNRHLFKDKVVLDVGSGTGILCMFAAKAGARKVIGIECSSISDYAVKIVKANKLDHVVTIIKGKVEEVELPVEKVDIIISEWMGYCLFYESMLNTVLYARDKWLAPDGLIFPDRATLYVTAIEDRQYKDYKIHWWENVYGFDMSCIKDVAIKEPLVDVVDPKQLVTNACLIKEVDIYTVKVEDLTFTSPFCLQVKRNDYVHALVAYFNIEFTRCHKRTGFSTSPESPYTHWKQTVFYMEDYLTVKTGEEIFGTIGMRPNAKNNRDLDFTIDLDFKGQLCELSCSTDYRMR
UniProt Q92908: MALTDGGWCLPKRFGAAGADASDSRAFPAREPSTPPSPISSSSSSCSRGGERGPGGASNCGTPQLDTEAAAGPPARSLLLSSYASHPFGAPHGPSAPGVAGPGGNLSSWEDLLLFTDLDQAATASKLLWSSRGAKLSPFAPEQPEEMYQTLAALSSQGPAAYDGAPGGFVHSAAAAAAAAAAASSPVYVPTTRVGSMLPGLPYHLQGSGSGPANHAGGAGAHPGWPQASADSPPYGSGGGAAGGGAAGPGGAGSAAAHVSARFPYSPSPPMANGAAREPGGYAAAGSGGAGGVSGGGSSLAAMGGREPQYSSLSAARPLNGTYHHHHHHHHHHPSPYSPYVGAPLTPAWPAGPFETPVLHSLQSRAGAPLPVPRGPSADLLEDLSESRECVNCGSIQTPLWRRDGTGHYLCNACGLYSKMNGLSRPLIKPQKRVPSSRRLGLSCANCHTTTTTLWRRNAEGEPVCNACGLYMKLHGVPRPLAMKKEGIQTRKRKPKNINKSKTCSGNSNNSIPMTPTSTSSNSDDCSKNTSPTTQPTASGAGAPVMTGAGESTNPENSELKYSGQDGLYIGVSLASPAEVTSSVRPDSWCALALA
UniProt O75376: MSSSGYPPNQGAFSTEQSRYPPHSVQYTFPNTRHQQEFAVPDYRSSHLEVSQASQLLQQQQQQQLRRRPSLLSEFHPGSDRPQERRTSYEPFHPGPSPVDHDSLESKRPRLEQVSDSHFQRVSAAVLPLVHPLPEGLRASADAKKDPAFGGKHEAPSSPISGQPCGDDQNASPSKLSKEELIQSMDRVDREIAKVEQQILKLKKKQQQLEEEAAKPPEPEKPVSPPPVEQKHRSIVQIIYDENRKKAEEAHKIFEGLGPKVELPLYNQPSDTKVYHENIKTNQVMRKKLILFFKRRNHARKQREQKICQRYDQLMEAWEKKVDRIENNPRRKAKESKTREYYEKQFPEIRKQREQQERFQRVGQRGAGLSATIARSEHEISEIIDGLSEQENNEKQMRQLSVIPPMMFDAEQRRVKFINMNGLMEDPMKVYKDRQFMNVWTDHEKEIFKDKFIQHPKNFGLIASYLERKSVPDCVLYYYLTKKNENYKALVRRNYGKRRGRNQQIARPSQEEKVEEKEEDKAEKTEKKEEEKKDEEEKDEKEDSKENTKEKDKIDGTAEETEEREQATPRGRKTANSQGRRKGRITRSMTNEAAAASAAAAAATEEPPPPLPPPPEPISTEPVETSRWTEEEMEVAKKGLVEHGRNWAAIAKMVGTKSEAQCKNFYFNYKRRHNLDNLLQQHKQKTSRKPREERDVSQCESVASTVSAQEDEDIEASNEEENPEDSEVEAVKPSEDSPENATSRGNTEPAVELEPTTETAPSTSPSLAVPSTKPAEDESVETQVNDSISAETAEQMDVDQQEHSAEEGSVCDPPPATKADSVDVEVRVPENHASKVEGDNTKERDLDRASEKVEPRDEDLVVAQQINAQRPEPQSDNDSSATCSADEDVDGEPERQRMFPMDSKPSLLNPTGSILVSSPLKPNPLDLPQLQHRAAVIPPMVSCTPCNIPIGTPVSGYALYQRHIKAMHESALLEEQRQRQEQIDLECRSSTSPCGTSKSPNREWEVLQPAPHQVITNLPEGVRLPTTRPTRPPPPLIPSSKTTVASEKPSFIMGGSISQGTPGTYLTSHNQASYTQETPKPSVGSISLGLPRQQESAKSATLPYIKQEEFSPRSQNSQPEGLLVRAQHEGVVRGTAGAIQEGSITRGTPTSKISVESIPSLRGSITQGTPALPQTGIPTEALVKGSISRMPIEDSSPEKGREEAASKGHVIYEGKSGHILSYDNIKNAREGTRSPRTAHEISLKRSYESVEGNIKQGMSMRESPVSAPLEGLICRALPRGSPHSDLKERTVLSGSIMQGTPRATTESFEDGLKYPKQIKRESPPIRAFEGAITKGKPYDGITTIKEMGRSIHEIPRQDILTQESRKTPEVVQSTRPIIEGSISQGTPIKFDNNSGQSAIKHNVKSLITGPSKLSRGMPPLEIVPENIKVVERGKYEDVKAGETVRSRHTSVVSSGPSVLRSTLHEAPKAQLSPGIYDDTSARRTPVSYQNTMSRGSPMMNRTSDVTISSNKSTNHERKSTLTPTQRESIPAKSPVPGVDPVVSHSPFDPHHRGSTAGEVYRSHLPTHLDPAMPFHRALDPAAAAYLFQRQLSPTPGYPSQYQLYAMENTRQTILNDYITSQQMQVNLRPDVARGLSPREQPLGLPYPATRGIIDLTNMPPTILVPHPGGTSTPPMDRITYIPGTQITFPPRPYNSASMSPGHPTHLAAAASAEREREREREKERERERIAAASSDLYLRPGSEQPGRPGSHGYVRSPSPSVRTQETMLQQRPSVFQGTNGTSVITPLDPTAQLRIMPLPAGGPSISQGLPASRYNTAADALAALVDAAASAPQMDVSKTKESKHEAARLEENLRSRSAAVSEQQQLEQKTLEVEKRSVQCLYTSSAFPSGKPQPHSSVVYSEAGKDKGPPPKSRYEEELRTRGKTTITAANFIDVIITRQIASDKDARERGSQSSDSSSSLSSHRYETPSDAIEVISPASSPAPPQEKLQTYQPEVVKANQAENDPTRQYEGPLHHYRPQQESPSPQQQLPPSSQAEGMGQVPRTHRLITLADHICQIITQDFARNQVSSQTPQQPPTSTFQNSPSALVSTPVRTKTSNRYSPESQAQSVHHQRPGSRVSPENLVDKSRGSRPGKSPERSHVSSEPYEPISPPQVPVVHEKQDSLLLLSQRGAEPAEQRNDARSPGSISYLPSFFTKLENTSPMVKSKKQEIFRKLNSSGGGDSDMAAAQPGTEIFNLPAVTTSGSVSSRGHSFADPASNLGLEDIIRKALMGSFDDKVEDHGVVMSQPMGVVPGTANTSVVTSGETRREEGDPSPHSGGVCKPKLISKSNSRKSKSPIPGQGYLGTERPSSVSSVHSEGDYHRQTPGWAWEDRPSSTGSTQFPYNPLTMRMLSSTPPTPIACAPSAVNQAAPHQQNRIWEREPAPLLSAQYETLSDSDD
UniProt Q9Y6Q9: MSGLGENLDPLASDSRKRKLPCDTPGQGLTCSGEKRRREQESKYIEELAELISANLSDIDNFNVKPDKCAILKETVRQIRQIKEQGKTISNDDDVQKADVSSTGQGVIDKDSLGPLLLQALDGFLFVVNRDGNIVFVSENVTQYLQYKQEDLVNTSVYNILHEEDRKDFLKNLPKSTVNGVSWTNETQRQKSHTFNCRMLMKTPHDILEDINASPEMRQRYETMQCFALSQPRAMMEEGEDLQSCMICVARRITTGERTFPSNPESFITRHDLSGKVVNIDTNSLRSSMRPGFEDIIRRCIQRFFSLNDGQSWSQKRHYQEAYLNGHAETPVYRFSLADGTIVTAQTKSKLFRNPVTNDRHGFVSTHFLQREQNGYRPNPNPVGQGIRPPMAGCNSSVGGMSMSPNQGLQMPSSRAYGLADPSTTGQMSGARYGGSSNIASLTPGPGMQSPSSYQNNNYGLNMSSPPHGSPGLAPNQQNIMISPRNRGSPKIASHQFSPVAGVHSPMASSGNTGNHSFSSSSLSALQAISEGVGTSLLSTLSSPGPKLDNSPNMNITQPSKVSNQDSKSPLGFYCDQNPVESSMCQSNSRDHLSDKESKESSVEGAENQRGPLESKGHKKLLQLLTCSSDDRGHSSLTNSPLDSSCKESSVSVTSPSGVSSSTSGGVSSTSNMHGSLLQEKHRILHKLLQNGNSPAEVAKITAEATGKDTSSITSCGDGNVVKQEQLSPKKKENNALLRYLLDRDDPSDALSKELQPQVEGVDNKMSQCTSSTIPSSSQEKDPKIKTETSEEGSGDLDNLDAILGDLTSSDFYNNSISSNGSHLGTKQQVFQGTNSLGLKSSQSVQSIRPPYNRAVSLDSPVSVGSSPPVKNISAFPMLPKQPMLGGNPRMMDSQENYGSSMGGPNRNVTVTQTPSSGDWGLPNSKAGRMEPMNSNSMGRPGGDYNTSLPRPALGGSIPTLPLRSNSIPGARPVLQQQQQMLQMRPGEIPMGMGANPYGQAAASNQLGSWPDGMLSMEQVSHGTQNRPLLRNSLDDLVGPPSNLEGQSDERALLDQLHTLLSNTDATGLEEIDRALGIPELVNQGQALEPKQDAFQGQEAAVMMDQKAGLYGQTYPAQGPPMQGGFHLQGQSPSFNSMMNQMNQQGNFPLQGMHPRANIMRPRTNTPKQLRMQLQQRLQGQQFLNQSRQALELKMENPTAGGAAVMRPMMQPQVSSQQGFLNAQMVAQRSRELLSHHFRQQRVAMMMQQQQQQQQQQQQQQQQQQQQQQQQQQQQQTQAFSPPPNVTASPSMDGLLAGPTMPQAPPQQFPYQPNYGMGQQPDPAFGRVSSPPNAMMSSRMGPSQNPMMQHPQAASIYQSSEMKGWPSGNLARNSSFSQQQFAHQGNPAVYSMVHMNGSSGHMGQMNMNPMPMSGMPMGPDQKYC

No constants are given. Whether binding was seen depends on the method and setting. In cells and extracts the contact can be indirect. Here binding means that the protein was enriched with, or labelled near, the bait; the list need not be complete.

One experiment concerns the target T1, FOXA1 (human (endogenous in HPAF-II, AsPC-1, Miapaca-2)) (UniProt P55317).
T1 sequence: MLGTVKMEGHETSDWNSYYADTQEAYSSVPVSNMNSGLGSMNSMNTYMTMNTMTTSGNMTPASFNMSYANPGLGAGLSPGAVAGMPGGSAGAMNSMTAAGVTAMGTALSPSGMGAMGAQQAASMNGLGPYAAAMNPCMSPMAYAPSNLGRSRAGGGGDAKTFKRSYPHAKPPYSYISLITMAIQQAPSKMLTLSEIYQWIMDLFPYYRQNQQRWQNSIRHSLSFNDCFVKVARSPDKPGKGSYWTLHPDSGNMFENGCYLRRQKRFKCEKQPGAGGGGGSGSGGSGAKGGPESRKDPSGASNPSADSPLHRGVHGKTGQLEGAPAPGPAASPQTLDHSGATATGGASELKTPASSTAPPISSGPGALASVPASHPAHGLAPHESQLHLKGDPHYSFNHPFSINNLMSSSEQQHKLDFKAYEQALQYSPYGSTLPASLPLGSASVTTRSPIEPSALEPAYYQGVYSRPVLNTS
Kind of experiment: affinity purification with mass spectrometry; RIME: cells cross-linked with 2 mM DSG and 1% formaldehyde, chromatin sonicated, endogenous FOXA1 immunoprecipitated overnight (Abcam ab5089 on Dynabeads), ten washes in RIPA buffer, LC-MS/MS, label-free quantification; HPAF-II, AsPC-1 and Miapaca-2 cells; three biological replicates and one pooled IgG control.
In the case of “protein arginine methyltransferase (PRMT1) (from UniProt Q99873 1-371) (enzyme)”, the binding entry is given as “binds”.
On the same count and under the same terms, under GATA6 (from UniProt Q92908 1-595) stands “binds”; under CBP (from UniProt Q92793 1-2442), “binds”.
Still for that read-out and setting: the same measure for NCOR1 (from UniProt O75376 1-2440): “binds”.
On the same count and under the same terms, under NCOA3 (from UniProt Q9Y6Q9 1-1424) stands “binds”.

The target in another experiment is T2, HNF4G (human (endogenous in HPAF-II, AsPC-1)) (UniProt Q14541).
T2 sequence: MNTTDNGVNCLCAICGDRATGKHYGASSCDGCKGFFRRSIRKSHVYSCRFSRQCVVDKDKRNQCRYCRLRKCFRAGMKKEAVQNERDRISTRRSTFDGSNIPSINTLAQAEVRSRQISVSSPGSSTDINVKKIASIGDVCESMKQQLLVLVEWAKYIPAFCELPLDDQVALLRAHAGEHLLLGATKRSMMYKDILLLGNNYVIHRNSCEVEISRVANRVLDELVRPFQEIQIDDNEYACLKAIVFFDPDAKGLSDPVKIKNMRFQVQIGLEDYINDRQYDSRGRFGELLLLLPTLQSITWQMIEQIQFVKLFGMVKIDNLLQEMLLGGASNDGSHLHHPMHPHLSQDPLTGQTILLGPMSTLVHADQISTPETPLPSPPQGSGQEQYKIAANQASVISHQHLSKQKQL
In words: affinity purification with mass spectrometry; quantitative RIME data re-examined; the bait that gave the result for HNF4G is not told (Fig. 3a shows FOXA1-RIME in HPAF-II; an HNF4G antibody is listed in the RIME methods).
Turning to “protein arginine methyltransferase (PRMT1) (from UniProt Q99873 1-371) (enzyme)”, the binding result is “binds”.
